We go through one substance from article PMC9166677.

No constants are given. Whether binding was seen depends on the method and setting. Binding can be weak; no strength is given.

In the test the target is HSP90α (C-terminal) (UniProt P07900). As to the kind of experiment: HSP90α (C-terminal) inhibitor screening assay; HSP90α (C-terminal):PPID binding activity read with or without the small-molecule HSP90 inhibitors SL-145, novobiocin or geldanamycin (500 μM); n = 3.

“peptidylprolyl isomerase D (from UniProt Q08752 1-370)”: the binding result is recorded as “binds”.
